Assay results published in patent publication US20030087319A1.
No constants are given. Whether binding was seen depends on the method and setting. For some assays here: In cells and extracts the contact can be indirect. Some results given as binding are weak or reduced against the parent protein; the word gives no strength. For some assays here: Sequences can lack the tags named with a protein.

Protein sequences, listed by entry. Tags and fused reporters are not part of them.
UniProt P55211: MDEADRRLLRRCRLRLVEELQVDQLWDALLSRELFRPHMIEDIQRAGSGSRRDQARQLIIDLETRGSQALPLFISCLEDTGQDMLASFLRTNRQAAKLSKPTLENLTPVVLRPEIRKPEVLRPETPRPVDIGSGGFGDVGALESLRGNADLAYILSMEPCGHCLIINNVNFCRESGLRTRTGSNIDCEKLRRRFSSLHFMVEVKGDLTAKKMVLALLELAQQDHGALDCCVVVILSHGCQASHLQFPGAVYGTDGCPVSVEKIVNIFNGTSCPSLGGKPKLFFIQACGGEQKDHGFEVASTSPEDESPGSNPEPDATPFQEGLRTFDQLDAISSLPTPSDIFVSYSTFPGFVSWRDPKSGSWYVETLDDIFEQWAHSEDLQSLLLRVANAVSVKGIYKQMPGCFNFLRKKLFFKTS

Tests used:
[1] = target: T1, recombinant active caspase-3 (PharMingen) (UniProt P42574); test: in vitro binding, 35S-labeled livin with recombinant active caspase-3, immunoprecipitation with caspase-specific antibody, SDS-PAGE, autoradiography
T1 sequence (looked up): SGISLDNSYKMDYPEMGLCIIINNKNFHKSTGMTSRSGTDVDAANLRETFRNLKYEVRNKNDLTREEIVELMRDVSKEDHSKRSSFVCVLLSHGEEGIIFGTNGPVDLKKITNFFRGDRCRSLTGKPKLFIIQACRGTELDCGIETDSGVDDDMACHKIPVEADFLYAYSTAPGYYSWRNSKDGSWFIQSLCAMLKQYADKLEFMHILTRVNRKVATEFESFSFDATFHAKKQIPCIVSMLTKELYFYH

[2] = target: unprocessed 45 kDa form of caspase-9 (UniProt P55211); test: co-immunoprecipitation from transfected HeLa cell lysates with anti-V5 antibody, Western blot for caspase-9

B1: livin (35[S]-methionine-labeled, wild-type, in vitro translated) (protein)
chain: MGPKDSAKCLHRGPQPSHWAAGDGPTQERCGPRSLGSPVLGLDTCRAWDHVDGQILGQLRPLTEEEEEEGAGATLSRGPAFPGMGSEELRLASFYDWPLTAEVPPELLAAAGFFHTGHQDKVRCFFCYGGLQSWKRGDDPWTEHAKWFPSCQFLLRSKGRDFVHSVQETHSQLLGSWDPWEEPEDAAPVAPSVPASGYPELPTPRREVQSESAQEPGARDVEAQLRRLQEERTCKVCLDRAVSIVFVPCGHLVCAECAPGLQLCPICRAPVRSRVRTFLS
modifications: 35[S]-methionine-labeled
[1]
  binding: binds

B2: livin expressed from pcDNA3.1/V5/His-TOPO-livin in transfected HeLa cells (protein, not shown: small tags and cut ends)
chain: MGPKDSAKCLHRGPQPSHWAAGDGPTQERCGPRSLGSPVLGLDTCRAWDHVDGQILGQLRPLTEEEEEEGAGATLSRGPAFPGMGSEELRLASFYDWPLTAEVPPELLAAAGFFHTGHQDKVRCFFCYGGLQSWKRGDDPWTEHAKWFPSCQFLLRSKGRDFVHSVQETHSQLLGSWDPWEEPEDAAPVAPSVPASGYPELPTPRREVQSESAQEPGARDVEAQLRRLQEERTCKVCLDRAVSIVFVPCGHLVCAECAPGLQLCPICRAPVRSRVRTFLS
[2]
  binding: binds
